Measurements as given in the supplement of paper PMC5949888.
± gives the standard deviation of the averaged measurements. Most values lie at the floor of the assay. Slopes are relative: functional sequences can read slightly below zero.

Tested on: Saccharomyces cerevisiae PS128 hsf1 delta, HSF1(1-493) fusion
Test: growth estimate (transactivation domain function in HSF1 fusion, heat-shock survival) (a.u. (slope of normalised read count over time)); higher = stronger growth at 37°C, i.e. more transactivation activity
Conditions: library: random library
Protocol: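 Random 60-nt DNA library encoding peptides of up to 20 aa, fused to the C-terminus of yeast HSF1 residues 1-493 (C-terminal TAD deleted) and expressed from the native HSF1 promoter on a CEN plasmid in hsf1-deleted S. cerevisiae PS128. Cells were selected at 37°C on -trp 5-FOA plates for 0, 2, 4, 6 and 8 days and amplicons were sequenced. Growth estimate is the slope of a robust linear fit of total-sum-normalised read counts (normalised to the first time point) over time, using at least 2 replicates. Sequences are classed functional (TAD activity) above a threshold of -0.13, set from stop-codon control sequences.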

Substance | growth estimate
ACGAWPTRSG | < -0.25
RKSTRSALSRVMFIERVTIG | < -0.25
VTQ | < -0.25
TCTKWSEVASVDACQGHIGH | < -0.25
VLPFRLIHI | < -0.25
ILSI | < -0.25
IFYGSLLG | < -0.25
GNRLVDSA | < -0.25
KGRVSRGRNRGPEATWIQLT | < -0.25
GRPGVSARVGQRFNWWPAMV | < -0.25
IAGVMVKQSRGFRRRLYR | < -0.25
CDAYASSQRSSGRKPNLLM | < -0.25
SCQAGCLAP | < -0.25
ICLLGVSCSLF | -0.232
GRIRTRWGGRRLCTTHTGPV | < -0.25
ALVISGGELYNR | < -0.25
SCDP | < -0.25
SSNGFDLGSDVHHCTCI | < -0.25
LVRRDQMFIV | < -0.25
VLKREKRHYGRSLWRRDRRA | < -0.25
LMGTGLLWRNAGRNPSHGPE | < -0.25
GHLDRGARNYPNVRR | < -0.25
AKNSASGLDVLVRDTQRGYS | < -0.25
RSLAGEGSAYVYPGAIPDLG | < -0.25

Substance | growth estimate
LRAASCSHSVVRGSLTCLLG | < -0.25
SKVSHTTANVRVIARLSRRR | < -0.25
LTIWRVGRWGTLLCLRHKVR | < -0.25
GDLCGAIKRCAYVRDYISHV | < -0.25
SIAMQWVGTVSLVWEELGSS | < -0.25
WSSLHTERVGISTTDERPSN | < -0.25
SIELMVVGSCDTSCRR | -0.246
VTGSASQR | < -0.25
HRTVQMGSTWQRHAA | 0.0075
AHGGEWEFAGSTRVLMLTFI | < -0.25
RLTRRCAVTTMLGRGTAFWT | < -0.25
KGELVRDATGPRILSSTCHP | < -0.25
GVVLINSKIRAVTCVV | < -0.25
AGNDY | < -0.25
ENAAMECTKPRALTPIYGR | < -0.25
RRLPPRVSGYTRPPKRSARS | < -0.25
QVNLSLGRNSPRVTSACTAD | < -0.25
LQSSAATRLVELKFDDGVRR | < -0.25
VDRLGNRACTSTFDAAF | < -0.25
LNPFYLLCLADRLERVPG | < -0.25
LTFFPEGREYSWIERYTVIG | < -0.25
RQCGALLVLRRPRYSWPHKE | < -0.25
THQILTYDS | < -0.25
TKPGYRWGSSGGREASSGHY | < -0.25

Fetched one by one from the list above, 4 records:
Substance | growth estimate
ICLLGVSCSLF | -0.232
LVRRDQMFIV | < -0.25
LMGTGLLWRNAGRNPSHGPE | < -0.25
SKVSHTTANVRVIARLSRRR | < -0.25

More entries:

Substance | growth estimate
RNPEQDLD | < -0.25
TVVVDCGFIRGLQRDVRPS | < -0.25
LLYPLTGGQAQAPCSVTVNR | < -0.25
LWRSAVNCPHLRLYSYW | < -0.25
WSQNTGVG | < -0.25
PICQCLQQEVYSPINGSNFA | < -0.25
ASEVGDILFFPLSSFNSAS | -0.135
ARGSGAKR | < -0.25
AYVLFSIENSLLGDTSGEPR | < -0.25
LVMSVTLRA | < -0.25
VFQNLTPHRTQHFSESRIAP | < -0.25
RPNPRN | < -0.25
RLRSVGQ | -0.243
GLNGRVKLEGPAS | < -0.25
NSL | < -0.25
AEKGRISGIALKTEICFGLL | -0.248
AKLVFGYADDNVKPEH | -0.182
WAGGALHPAYVNHSV | < -0.25
ATSVWDLKPGRVDKTRHQTS | < -0.25
FRSCSDEYYTTIRERVLCVN | < -0.25
PTQATHGLLMVTVPYCPASP | < -0.25
RNTTGQYPL | < -0.25
ADFDAGSGDCE | < -0.25
YWSCPT | < -0.25

Substance | growth estimate
VLQRLRFSGYTVGACKLCRD | < -0.25
SKTVVVPIARTLGRGMSHCH | < -0.25
MLTTIREPSLG | < -0.25
GVTELF | < -0.25
AINPVPGSNNQPVATLGSRP | < -0.25
FEFISRVGFMEDISSAYPFS | 0.399
LEFAAVARDQQRTSSIDAKQ | < -0.25
LSVAQGTGRSGIPSRVPHAG | < -0.25
AKVVLL | < -0.25
PSDLDVLCVLGSDSPLRQVF | < -0.25
SRLTVRNQWASS | < -0.25
PRPGRRS | < -0.25
VGSPTPE | < -0.25
CSCSPGQLNVIGPRRCIAMP | < -0.25
VALHSV | < -0.25
VICPHEWPSRTLPGKFFTSR | < -0.25
KGSAL | < -0.25
RSGTIIRRRSASAYGWATKY | < -0.25
QCPAGRM | < -0.25
CSLSNDDVRRRSLLFSWGQR | < -0.25
GPGHYRMVPCASSKYAAVQT | < -0.25
GQYGYGDVSDGVPLHRSRCE | < -0.25
TSSGGLPWSSR | < -0.25
CKPFVGPDPG | < -0.25

Substance | growth estimate
NRRAAGYQEPLRR | < -0.25
LECLRRGGMKLPLRRPCS | < -0.25
RGNLHFPAGDASSWEEEDKQ | < -0.25
LMGRYPFTIRIVMPSNLLSR | < -0.25
HGVIGK | < -0.25
NRFYTMAVALVLRITLVSSV | < -0.25
IGVKVRIECSHTGKQVQP | < -0.25
LVNSISN | < -0.25
TRQRMYQIHL | < -0.25
RQCGETDSFPSTSTRFA | < -0.25
VYSIATP | < -0.25
TSHNPQEWGSI | -0.232
LQGY | < -0.25
LQRSSFLCII | < -0.25
TRVVFPHGVVQLQPGRPH | < -0.25
SDRTPLVVKDSCRNLTTAVS | < -0.25
NTICVSTGHASLGTLVSRLC | < -0.25
RYGGL | < -0.25
IRTSTNVCLIRGRALHYRGT | < -0.25
EFLL | < -0.25
ARSVTPTGHRCVLLCRRSTH | < -0.25
MVDGG | < -0.25
EWQELLTSHRIRANTVALVA | < -0.25
CKTLMGPCSPKGYVGSGAPV | -0.158

Substance | growth estimate
INLTRIPVVTANLGFALTRL | < -0.25
YLVGV | < -0.25
TGSH | < -0.253
WVRENRKSSAFCMDGNPPAT | < -0.25
THFQRGTRLPKAGEFWIPGY | < -0.25
LNS | -0.2491 ± 0.0013
IIVLG | < -0.25
LKFQHPKPGK | -0.245
APRRLLACSGNHIECRWFCA | < -0.25
PFLAIKRSW | < -0.25
TFGAIPQIPRLTLQGSEKAR | -0.248
SNVSVL | < -0.25
MAAGPLSPALSRYSAAYNAR | < -0.25
IYSRVVGYYNPYRACAQQSQ | < -0.25
WPLLTYGLILSGYSLLFSIP | < -0.25
LQKVYNGMFVGL | < -0.25
SRRGLW | < -0.25
CVSSYGYRGQVSLPGMIQGI | < -0.25
SLKQHVSSRFTK | < -0.25
CGSGSVLGSDHTQGIQSYDS | -0.235
FTYHT | < -0.25
GNQSVAVRSLALGIVTWSEG | < -0.25
SRF | < -0.25
TVSFRLSPSEIE | < -0.25

Some of the entries above, reformatted:
Substance	growth estimate
GRIRTRWGGRRLCTTHTGPV	< -0.25
CGSGSVLGSDHTQGIQSYDS	-0.235

(further entries)

Substance | growth estimate
RHPFSQSQ | < -0.25
LQIAYSVPVYHLVSMSAAAR | < -0.25
VGRHRINVRSPSLMSVPSGA | < -0.25
VLLGVCCKTAGVTLCNGLGT | < -0.25
FNPLRPVSW | < -0.25
PQNGAA | < -0.25
PGTCLPPNPGT | < -0.25
VKHAETALVVKVTVACALPA | < -0.25
CKSP | < -0.25
WCKFVRHVSK | 0.126
TGRRGYTI | < -0.25
TPYTLDVIGSFLRL | -0.208
QSLR | < -0.25
VHFQTMYSQKWSWARQK | < -0.25
NYREVGKCCSNPR | < -0.25
LGLHTYEPLDSLTPPA | < -0.25
YAVTKHSR | < -0.25
VGLTRVVHSQGSKSSVRLES | < -0.25
LNRVECSCTVIRCVIPTPKV | < -0.25
IPHKLSRQQCGPVQHFSGPV | < -0.25
VPPASHAPWSR | < -0.25
LSLLIANTRRELCGLSSIPL | < -0.25
FEAKGCRGRMSMTRIAHVEG | < -0.25
LVGLSLFRSEDFIRA | < -0.25

Substance | growth estimate
IKASGTI | < -0.25
YLAGRSGGPLQAMNAGCRKC | < -0.25
SPTQARASVTRGVSYHSRQS | < -0.25
CFGLLPIRSRGVKSRSKGIW | < -0.25
RATRAARNTGSG | < -0.25
SIEDIGSQGLSSDVGSGGTS | < -0.25
IFNMSSLDLGDSNENQSAGA | < -0.25
CYVGLIHRHRPIRGGMDLPG | < -0.25
LGSFSVYSQP | -0.243
SELEAQDNKNRAWLL | < -0.25
RRVRLRR | < -0.25
YIFGR | < -0.25
SFTPGD | < -0.25
FTLVSVTGMQRSWT | < -0.25
KVGRRSG | < -0.25
GRTVAGGRSMPEEIAAIRAP | < -0.25
PGLQSYSVE | < -0.25
PECREP | < -0.25
NVYARSNTSCNSSA | < -0.25
GITLSVRFWEGWRTSPSGTG | < -0.25
GKPKGGPSSW | < -0.25
DPKKCYVSPLMLKRQKTSCH | < -0.25
LRWRL | < -0.25
CNYLL | < -0.25
